From PubChem BioAssay AID256 (DTP/NCI, 2004)
The list shows only some results of the screen, not a fair sample: it gathers tests that were run many times, whatever their T/C, doses with no T/C, and many T/C values between a quarter and a half above the control. Further doses and runs are listed elsewhere. T/C gives the treated animals as a percentage of the vehicle group. Some doses have a count of surviving animals in place of a T/C: the source files T/C as zero there, which appears to mark a toxic dose or a test without result, not a measured value. Some doses without a T/C left all or most animals alive at the check, yet need not have been tolerated: the source hardly ever lists a survival T/C far under the control, and the zero likely stands for such cases as well. Survivors were counted at the toxicity check, usually on the fifth day, unless a day is given; later deaths do not show. Schedules are NCI's codes, read here as Q, the interval in days (D) or hours (H), X, the number of doses. Some entries hold several experiments; their values stand side by side, smallest first. Where survival is the endpoint, the PubChem record calls one and a half times the control and up active, and a quarter to a half above the control has no call in these data; cut-offs in other NCI protocols can differ. Some T/C values are followed by the survivors on the day toxicity was checked, most often the fifth; where none is given, no animal had died by that day.

Test system: CD2F1 mice, L1210 leukemia ip, survival T/C
Assay: NCI In Vivo Anticancer Drug Screen. Data for tumor model L1210 Leukemia (intraperitoneal) in CD2F1 (CDF1) mice
Details: higher T/C = longer survival
Summary of the method: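 Vehicle-treated tumor-bearing mice served as controls (C) for compound-treated mice (T). Reported figure is T divided by C.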

[1] = T/C endpoint: mean survival time, dose: 400.0 mg/kg/injection, schedule: Q04DX003 (ip), vehicle: saline with Tween-80
[2] = T/C endpoint: mean survival time, dose: 200.0 mg/kg/injection, schedule: Q04DX002 (ip), vehicle: saline with Tween-80
[3] = T/C endpoint: mean survival time, dose: 400.0 mg/kg/injection, schedule: Q04DX002 (ip), vehicle: saline with Tween-80
[4] = T/C endpoint: mean survival time, dose: 400.0 mg/kg/injection, schedule: Q01DX009 (ip), vehicle: saline with Tween-80
[5] = T/C endpoint: mean survival time, dose: 100.0 mg/kg/injection, schedule: Q01DX009 (ip), vehicle: saline with Tween-80
[6] = T/C endpoint: mean survival time, dose: 200.0 mg/kg/injection, schedule: Q01DX009 (ip), vehicle: saline with Tween-80

O=[N+]([O-])c1ccc(Sc2ncnc3nc[nH]c23)c([N+](=O)[O-])c1
T/C (T/C endpoint: mean survival time, dose: 7.4 mg/kg/injection, schedule: Q01DX005 (ip), vehicle: other): 137 % of control | T/C (T/C endpoint: mean survival time, dose: 11.0 mg/kg/injection, schedule: Q01DX005 (ip), vehicle: other): 146 % of control

CN(C)C1CC2C=CC1C1C=CC21 (stereo unspecified)
survivor count (T/C endpoint: mean survival time, dose: 100.0 mg/kg/injection, schedule: Q01DX009 (ip), vehicle: water): 2 of 6

CN(C)C=Nc1ccc2c3c(cccc13)CC2
survivor count (T/C endpoint: mean survival time, dose: 100.0 mg/kg/injection, schedule: Q04DX003 (ip), vehicle: saline with Tween-80): 1 of 6 | survivor count (T/C endpoint: mean survival time, dose: 200.0 mg/kg/injection, schedule: Q04DX003 (ip), vehicle: saline with Tween-80): 0 of 6 | survivor count [1]: 0 of 6

O=NNc1ccc2cccnc2n1
T/C (T/C endpoint: median survival time, dose: 36.0 mg/kg/injection, schedule: Q01DX005 (ip), vehicle: water): 143 % of control | survivor count (T/C endpoint: median survival time, dose: 200.0 mg/kg/injection, schedule: Q01DX005 (ip), vehicle: water): 5 of 6 | survivor count (T/C endpoint: median survival time, dose: 277.77 mg/kg/injection, schedule: Q01DX005 (ip), vehicle: water): 4 of 6

O=c1scc(-c2ccc(Br)cc2)s1
survivor count (T/C endpoint: mean survival time, dose: 50.0 mg/kg/injection, schedule: Q01DX009 (ip), vehicle: Klucel (hydroxypropylcellulose) (HPC)): 1 of 6 and 2 of 6 | survivor count (T/C endpoint: mean survival time, dose: 100.0 mg/kg/injection, schedule: Q01DX009 (ip), vehicle: Klucel (hydroxypropylcellulose) (HPC)): 0 of 6 | survivor count (T/C endpoint: mean survival time, dose: 200.0 mg/kg/injection, schedule: Q01DX009 (ip), vehicle: Klucel (hydroxypropylcellulose) (HPC)): 0 of 6

COCCNC1=C(C)C(=O)C2=C(C1=O)[C@H](COC(N)=O)[C@]1(OC)[C@@H]3N[C@@H]3CN21
T/C (T/C endpoint: mean survival time, dose: 6.0 mg/kg/injection, schedule: Q01DX001 (ip), vehicle: distilled water + Tween-80): 125 % of control | T/C (T/C endpoint: mean survival time, dose: 12.0 mg/kg/injection, schedule: Q01DX001 (ip), vehicle: distilled water + Tween-80): 144 % of control

Cc1cc(Nc2ccccc2)nc(C)n1
survivor count (T/C endpoint: mean survival time, dose: 50.0 mg/kg/injection, schedule: Q04DX002 (ip), vehicle: saline with Tween-80): 0 of 3 | survivor count (T/C endpoint: mean survival time, dose: 100.0 mg/kg/injection, schedule: Q04DX002 (ip), vehicle: saline with Tween-80): 0 of 3 | survivor count [2]: 3 of 3 | survivor count [3]: 1 of 3

CCOC(=O)Nc1cc(NC(c2ccc(Cl)cc2)c2ccc(Cl)cc2)c2[nH]cnc2n1
survivor count (T/C endpoint: mean survival time, dose: 150.0 mg/kg/injection, schedule: Q01DX001 (ip), vehicle: other): 2 of 6 | survivor count (T/C endpoint: mean survival time, dose: 300.0 mg/kg/injection, schedule: Q01DX001 (ip), vehicle: other): 1 of 6

Cc1ccc(S(=O)(=O)N(CCCc2c(C)nc(N)nc2Nc2ccccc2)c2ccccc2)cc1
survivor count (T/C endpoint: mean survival time, dose: 200.0 mg/kg/injection, schedule: Q01DX001 (ip), vehicle: saline with Tween-80): 3 of 6 | survivor count (T/C endpoint: mean survival time, dose: 400.0 mg/kg/injection, schedule: Q01DX001 (ip), vehicle: saline with Tween-80): 0 of 6

CCN(C(=O)c1ccccc1Cl)C(c1ccco1)P(=O)(c1ccccc1)c1ccccc1 (stereo unspecified)
survivor count [4]: 3 of 3

CC(=O)n1cc(F)c(=O)[nH]c1=O
T/C (T/C endpoint: mean survival time, dose: 11.0 mg/kg/injection, schedule: Q01DX009 (ip), vehicle: saline): 143 % of control | survivor count [5]: 6 of 6 | survivor count [6]: 6 of 6

CC(=O)NC1(C(=O)O)SCCCS1
survivor count [2]: 3 of 3

CCN(CC)C(=O)c1cc[n+](Cc2ccc(Cl)cc2)cc1
survivor count (T/C endpoint: mean survival time, dose: 400.0 mg/kg/injection, schedule: Q04DX003 (ip), vehicle: saline): 0 of 6

CCCCS(=O)C(Cl)CCC (stereo unspecified)
survivor count [1]: 2 of 6

O=C(O)c1ccc(Nc2c3ccccc3nc3ccccc23)cc1
T/C (T/C endpoint: mean survival time, dose: 20.0 mg/kg/injection, schedule: Q01DX009 (ip), vehicle: Klucel (hydroxypropylcellulose) (HPC)): 127 % of control | T/C (T/C endpoint: mean survival time, dose: 30.0 mg/kg/injection, schedule: Q01DX009 (ip), vehicle: Klucel (hydroxypropylcellulose) (HPC)): 147 % of control | T/C (T/C endpoint: mean survival time, dose: 44.0 mg/kg/injection, schedule: Q04DX003 (ip), vehicle: Klucel (hydroxypropylcellulose) (HPC)): 127 % of control | T/C (T/C endpoint: mean survival time, dose: 66.0 mg/kg/injection, schedule: Q04DX003 (ip), vehicle: Klucel (hydroxypropylcellulose) (HPC)): 136 % of control | T/C (T/C endpoint: mean survival time, dose: 75.0 mg/kg/injection, schedule: Q04DX002 (ip), vehicle: Klucel (hydroxypropylcellulose) (HPC)): 140 % of control | T/C (T/C endpoint: mean survival time, dose: 88.0 mg/kg/injection, schedule: Q04DX002 (ip), vehicle: Klucel (hydroxypropylcellulose) (HPC)): 139 % of control | T/C (T/C endpoint: mean survival time, dose: 133.0 mg/kg/injection, schedule: Q01DX001 (ip), vehicle: Klucel (hydroxypropylcellulose) (HPC)): 134 % of control | T/C (T/C endpoint: mean survival time, dose: 150.0 mg/kg/injection, schedule: Q01DX001 (ip), vehicle: Klucel (hydroxypropylcellulose) (HPC)): 134 % of control | survivor count (T/C endpoint: mean survival time, dose: 150.0 mg/kg/injection, schedule: Q01DX009 (ip), vehicle: Klucel (hydroxypropylcellulose) (HPC)): 6 of 6 | T/C (T/C endpoint: mean survival time, dose: 200.0 mg/kg/injection, schedule: Q01DX001 (ip), vehicle: Klucel (hydroxypropylcellulose) (HPC)): 147 % of control | T/C (T/C endpoint: mean survival time, dose: 450.0 mg/kg/injection, schedule: Q01DX001 (ip), vehicle: Klucel (hydroxypropylcellulose) (HPC)): 147 % of control [5 of 6 alive] | survivor count (T/C endpoint: mean survival time, dose: 600.0 mg/kg/injection, schedule: Q01DX001 (ip), vehicle: Klucel (hydroxypropylcellulose) (HPC)): 0 of 6 | survivor count (T/C endpoint: mean survival time, dose: 600.0 mg/kg/injection, schedule: Q04DX002 (ip), vehicle: Klucel (hydroxypropylcellulose) (HPC)): 1 of 6 | survivor count (T/C endpoint: mean survival time, dose: 600.0 mg/kg/injection, schedule: Q04DX003 (ip), vehicle: Klucel (hydroxypropylcellulose) (HPC)): 2 of 6

CCC12C[N+]3([O-])CCc4c([nH]c5ccccc45)C(C(=O)OC)(c4cc5c(cc4OC)N(C)C4C(O)(C(=O)OC)C(OC(C)=O)C6(CC)C=CCN7CCC54C76)CC(C3)C1O2 (stereo unspecified)
T/C (T/C endpoint: median survival time, dose: 10.0 mg/kg/injection, schedule: Q01DX009 (ip), vehicle: water): 133 % of control

Nc1nc(N)c(-c2ccc(Cl)c(Cl)c2)c(CP(Cl)(Cl)(Cl)Br)n1
T/C (T/C endpoint: mean survival time, dose: 50.0 mg/kg/injection, schedule: Q01DX009 (ip), vehicle: saline with Tween-80): 136 % of control | T/C [5]: 113, 119, 120, 125 % of control | T/C [6]: 100, 120, 122, 127 % of control | T/C [4]: 97 and 127 % of control [4 of 6 alive] | survivor count [4]: 0 of 3 and 1 of 3 | survivor count [1]: 0 of 6

CNCCNc1ccc(NCCNC)c2c1C(=O)c1ccccc1C2=O
T/C (T/C endpoint: mean survival time, dose: 1.0 mg/kg/injection, schedule: Q01DX009 (ip), vehicle: acid diluted with saline): 134 % of control | T/C (T/C endpoint: mean survival time, dose: 2.0 mg/kg/injection, schedule: Q01DX009 (ip), vehicle: acid diluted with saline, evaluated on day 30): 146 % of control | T/C (T/C endpoint: mean survival time, dose: 2.0 mg/kg/injection, schedule: Q01DX009 (ip), vehicle: acid diluted with saline, evaluated on day 35): 134 % of control | T/C (T/C endpoint: mean survival time, dose: 16.0 mg/kg/injection, schedule: Q01DX009 (ip), vehicle: acid diluted with saline): 140 % of control | survivor count (T/C endpoint: mean survival time, dose: 32.0 mg/kg/injection, schedule: Q01DX009 (ip), vehicle: acid diluted with saline): 5 of 6

CC[N-]c1nncs1.CC[N-]c1nncs1.CC[N-]c1nncs1.CC[N-]c1nncs1.[Cl][Rh][Cl]
survivor count (T/C endpoint: mean survival time, dose: 100.0 mg/kg/injection, schedule: Q04DX003 (ip), vehicle: distilled water + Tween-80): 2 of 6 | survivor count (T/C endpoint: mean survival time, dose: 200.0 mg/kg/injection, schedule: Q04DX003 (ip), vehicle: distilled water + Tween-80): 0 of 6

CCC1NC(=O)C(NC(=O)c2ncccc2O)C(C)OC(=O)C(c2ccccc2)NC(=O)C2CC(=O)CCN2C(=O)C(Cc2ccccc2)N(C)C(=O)C2CCCN2C1=O (stereo unspecified)
survivor count [3]: 1 of 3

CNC(=S)Nc1ccc(C(=O)NC(C)C)cc1
survivor count (T/C endpoint: mean survival time, dose: 400.0 mg/kg/injection, schedule: Q01DX009 (ip), vehicle: other): 3 of 6 | survivor count (T/C endpoint: mean survival time, dose: 800.0 mg/kg/injection, schedule: Q01DX009 (ip), vehicle: other): 0 of 6

O=P1(N(CCCl)CCCl)NCCCO1.[Cl][Sb]([Cl])[Cl] (stereo unspecified)
survivor count (T/C endpoint: mean survival time, dose: 250.0 mg/kg/injection, schedule: Q01DX001 (ip), vehicle: olive oil, sesame oil, peanut oil): 0 of 6 | survivor count (T/C endpoint: mean survival time, dose: 500.0 mg/kg/injection, schedule: Q01DX001 (ip), vehicle: olive oil, sesame oil, peanut oil): 0 of 6

O=C(C[n+]1ccccc1)N/N=C/c1ccccc1Cl
survivor count [6]: 0 of 6 | survivor count [4]: 0 of 6

Oc1ccc(I)c2cccnc12
survivor count (T/C endpoint: mean survival time, dose: 22.5 mg/kg/injection, schedule: Q01DX009 (ip), vehicle: saline): 6 of 6 | survivor count (T/C endpoint: mean survival time, dose: 360.0 mg/kg/injection, schedule: Q01DX009 (ip), vehicle: saline): 4 of 6
